From patent US20210230570A1
No constants are given. Whether binding was seen depends on the method and setting. Some results given as binding are weak or reduced against the parent protein; the word gives no strength.

Amino acid sequences for entries named in this document (tags omitted). A change or cut given only in a name is not applied to a line headed by its entry. Chains listed by the source or under a name are the forms on record and can include a tag or linker.
Factor VIIIa (recombinant FVIII, Kogenate FS, activated with alpha-thrombin) (P00451, form named): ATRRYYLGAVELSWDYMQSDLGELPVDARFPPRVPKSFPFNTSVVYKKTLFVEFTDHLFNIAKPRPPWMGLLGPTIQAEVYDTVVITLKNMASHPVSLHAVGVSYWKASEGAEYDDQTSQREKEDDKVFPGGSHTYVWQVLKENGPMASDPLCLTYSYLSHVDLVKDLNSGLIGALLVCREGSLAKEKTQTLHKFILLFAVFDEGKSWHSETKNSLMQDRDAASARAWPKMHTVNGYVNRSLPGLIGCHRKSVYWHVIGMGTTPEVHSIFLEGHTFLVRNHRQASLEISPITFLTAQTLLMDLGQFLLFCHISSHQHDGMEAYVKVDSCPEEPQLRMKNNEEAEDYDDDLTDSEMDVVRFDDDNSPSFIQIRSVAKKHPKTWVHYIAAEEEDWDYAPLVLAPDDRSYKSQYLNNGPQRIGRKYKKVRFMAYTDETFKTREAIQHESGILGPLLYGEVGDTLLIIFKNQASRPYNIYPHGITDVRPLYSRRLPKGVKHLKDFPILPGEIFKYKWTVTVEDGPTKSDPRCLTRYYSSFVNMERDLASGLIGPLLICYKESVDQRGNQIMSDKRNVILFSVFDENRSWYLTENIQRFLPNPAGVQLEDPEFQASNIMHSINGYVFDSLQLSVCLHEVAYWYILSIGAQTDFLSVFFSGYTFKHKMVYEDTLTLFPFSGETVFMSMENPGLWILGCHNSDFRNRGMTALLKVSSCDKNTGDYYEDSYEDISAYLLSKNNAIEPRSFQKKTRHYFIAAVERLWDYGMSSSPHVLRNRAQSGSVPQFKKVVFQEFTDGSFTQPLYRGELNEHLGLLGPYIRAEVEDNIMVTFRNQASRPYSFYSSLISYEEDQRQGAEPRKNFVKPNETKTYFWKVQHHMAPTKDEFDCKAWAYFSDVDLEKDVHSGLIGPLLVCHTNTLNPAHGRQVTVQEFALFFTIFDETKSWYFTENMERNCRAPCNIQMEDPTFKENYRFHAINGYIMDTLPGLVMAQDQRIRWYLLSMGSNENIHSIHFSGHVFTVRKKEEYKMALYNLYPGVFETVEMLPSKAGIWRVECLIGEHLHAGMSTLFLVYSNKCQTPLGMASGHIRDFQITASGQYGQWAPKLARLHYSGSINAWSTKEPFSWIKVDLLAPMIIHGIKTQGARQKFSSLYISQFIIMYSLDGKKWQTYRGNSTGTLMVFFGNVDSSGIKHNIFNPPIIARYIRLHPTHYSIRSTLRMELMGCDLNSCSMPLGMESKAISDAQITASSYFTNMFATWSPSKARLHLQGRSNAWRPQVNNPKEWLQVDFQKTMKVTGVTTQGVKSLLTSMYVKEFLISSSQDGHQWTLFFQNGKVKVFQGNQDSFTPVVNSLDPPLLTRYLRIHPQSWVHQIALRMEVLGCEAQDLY
UniProt P00740: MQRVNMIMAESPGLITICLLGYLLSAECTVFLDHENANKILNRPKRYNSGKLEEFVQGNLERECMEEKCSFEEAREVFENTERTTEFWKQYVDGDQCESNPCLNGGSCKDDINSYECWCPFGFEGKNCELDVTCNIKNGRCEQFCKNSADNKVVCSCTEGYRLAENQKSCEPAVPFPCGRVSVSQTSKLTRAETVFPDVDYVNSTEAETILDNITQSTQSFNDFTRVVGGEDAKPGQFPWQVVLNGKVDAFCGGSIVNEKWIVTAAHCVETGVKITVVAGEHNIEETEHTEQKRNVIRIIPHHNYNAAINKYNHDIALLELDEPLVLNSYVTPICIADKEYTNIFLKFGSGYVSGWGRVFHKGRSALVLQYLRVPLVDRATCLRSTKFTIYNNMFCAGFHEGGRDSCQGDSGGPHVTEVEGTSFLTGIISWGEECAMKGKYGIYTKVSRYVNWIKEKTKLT

Biological target: Factor VIIIa (recombinant FVIII, Kogenate FS, activated with alpha-thrombin) (UniProt P00451)
Assay: functional cofactor binding (KD-app): FX activation by FIXa at varied FVIIIa, PC/PS vesicles, fluorogenic FXa read-out

| binding | Substance |
| --- | --- |
| binds | FIXa-E410N (from UniProt P00740 47-191; P00740 227-461) (enzyme) |
| binds | FIXa-R318Y/R338E (from UniProt P00740 47-191; P00740 227-461) (enzyme) |
| binds | FIXa-R318Y/R338E/R403E/E410N (from UniProt P00740 47-191; P00740 227-461) (enzyme) |
| binds | FIXa-R338E (from UniProt P00740 47-191; P00740 227-461) (enzyme) |
| binds | FIXa-Y155F/K247N/N249S/R318Y/R338E/T343R/R403E/E410N (from UniProt P00740 47-191; P00740 227-461) (enzyme) |

Further lines, the substance ahead of its results:

| Substance | binding |
| --- | --- |
| FIXa-K228N/K247N/N249S/R318Y/R338E/T343R/E410N (from UniProt P00740 47-191; P00740 227-461) (enzyme) | binds |
| FIXa-R318Y/R338E/E410N (from UniProt P00740 47-191; P00740 227-461) (enzyme) | binds |
| FIXa-R318Y/R338E/T343R/E410N (from UniProt P00740 47-191; P00740 227-461) (enzyme) | binds |
| FIXa-R338E/E410N (from UniProt P00740 47-191; P00740 227-461) (enzyme) | binds |
| FIXa-R338E/T343R (from UniProt P00740 47-191; P00740 227-461) (enzyme) | binds |
| FIXa-T343R (from UniProt P00740 47-191; P00740 227-461) (enzyme) | binds |
